The values are deposited in ChEMBL (CHEMBL3988442, “University of Dundee, Small-Polar-MMV Screening Library” (2021)).

Protein sequences, listed by entry. Tags and fused reporters are not part of them. Residues count along the entry.
UniProt A4I591, 1-473: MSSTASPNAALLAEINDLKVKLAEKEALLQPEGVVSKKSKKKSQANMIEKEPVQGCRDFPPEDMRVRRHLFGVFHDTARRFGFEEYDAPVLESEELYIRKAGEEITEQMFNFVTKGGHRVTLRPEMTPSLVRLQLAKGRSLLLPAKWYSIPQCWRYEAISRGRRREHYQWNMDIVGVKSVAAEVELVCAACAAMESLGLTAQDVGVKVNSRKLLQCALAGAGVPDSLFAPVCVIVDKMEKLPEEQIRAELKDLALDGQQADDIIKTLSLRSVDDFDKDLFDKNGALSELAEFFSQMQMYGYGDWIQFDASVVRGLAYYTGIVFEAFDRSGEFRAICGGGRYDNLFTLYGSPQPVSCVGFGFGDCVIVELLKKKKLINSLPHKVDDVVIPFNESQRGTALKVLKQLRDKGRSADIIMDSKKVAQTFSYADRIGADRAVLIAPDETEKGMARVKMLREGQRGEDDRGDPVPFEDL
UniProt P9WNZ1, whole entry: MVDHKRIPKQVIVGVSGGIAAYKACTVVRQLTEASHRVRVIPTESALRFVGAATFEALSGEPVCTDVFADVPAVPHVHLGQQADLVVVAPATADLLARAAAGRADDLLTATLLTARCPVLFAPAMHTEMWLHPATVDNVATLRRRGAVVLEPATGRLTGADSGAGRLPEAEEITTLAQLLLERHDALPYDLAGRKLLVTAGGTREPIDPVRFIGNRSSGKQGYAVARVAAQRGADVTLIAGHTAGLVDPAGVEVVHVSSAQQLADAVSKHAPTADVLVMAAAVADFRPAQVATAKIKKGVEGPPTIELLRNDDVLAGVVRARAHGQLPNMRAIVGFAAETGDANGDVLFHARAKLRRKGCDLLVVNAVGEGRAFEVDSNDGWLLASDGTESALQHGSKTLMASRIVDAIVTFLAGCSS

The filed quantity is “Percent Effect” (%). How 0% and 100% were set is not recorded. Most values in the screen are low, and negative values occur. Compounds were drawn at random from those tested, without regard to their results.

LiHisRS: 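Histidine-tRNA ligase, Leishmania infantum (UniProt A4I591). Enzyme assay of histidyl-tRNA synthetase; the read-out is not stated. Tested at 30 µM. Higher reads as stronger inhibition (inferred: compounds with an IC50 in retests scored well above the rest). The assay is labelled LdHisRS but filed under L. infantum. Size under these conditions: about 69,000 compounds, about 410 of them at 50% or above in at least one test.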
Leishmania in macrophages: 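Cell assay of Leishmania donovani living inside macrophages; the read-out is not stated. Concentration: 30 µM. Higher reads as stronger inhibition (inferred: compounds with an IC50 in retests scored well above the rest). Size under these conditions: about 69,000 compounds, about 1,000 of them at 50% or above in at least one test.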
CoaBC: 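Enzyme assay of CoaBC with a phosphate dye (Biomol Green) read at 650 nm. Target: Coenzyme A biosynthesis protein CoaBC, Mycobacterium tuberculosis (UniProt P9WNZ1). Tested at 30 µM. Higher reads as stronger inhibition, judged from the few compounds that gave an IC50. Most strong results did not repeat in a second test. Of about 67,000 compounds tested this way, about 40 (0.06%) reached 50% or more in at least one test.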

{"compound": "NC(=O)N1CCc2cc(C(=O)O)c(-c3ccsc3)nc2CC1", "LiHisRS": 15.52}
{"compound": "CC(C)c1ccc(CS(=O)(=O)Cc2nc(N)nc(N(C)C)n2)cc1", "LiHisRS": 13.16, "Leishmania in macrophages": 15.85, "CoaBC": -3.226}
{"compound": "CCc1nc(C2CCCN(C(=O)c3cc(C(C)C)[nH]n3)C2)no1", "stereo": "centres undefined", "LiHisRS": -1.786, "Leishmania in macrophages": 8.257, "CoaBC": 16.14}
{"compound": "CCCn1ncc(C2CC(=O)NCc3nc4cc(C)ccn4c32)c1C", "stereo": "centres undefined", "LiHisRS": 10.26, "Leishmania in macrophages": -2.913, "CoaBC": 2.616}
{"compound": "Cc1nn(C)c(C)c1OCC(=O)NCc1cccc(C(=O)O)c1", "LiHisRS": 13.43, "Leishmania in macrophages": 13.01, "CoaBC": 0}
{"compound": "COc1ccc(CCNC(=O)NC2CC(=O)N(c3ccccc3)C2)cc1", "stereo": "centres undefined", "LiHisRS": -4.959, "Leishmania in macrophages": -13.47, "CoaBC": -0.6242}
{"compound": "CCCc1nc(C(=O)NC(COC)c2ccnn2C)cs1", "stereo": "centres undefined", "LiHisRS": 10.84, "Leishmania in macrophages": -11.98, "CoaBC": -0.3764}
{"compound": "Cc1sc(N)nc1-c1ccc(Cl)cc1", "LiHisRS": 7.229, "Leishmania in macrophages": 21.39, "CoaBC": 19.9}
{"compound": "O=C(C1CC=CC1)N1C[C@@H]2CN(Cc3ccsc3)CCO[C@@H]2C1", "LiHisRS": 21, "CoaBC": 4.079}
{"compound": "CN(Cc1ccccc1)CC(C)(C)NC(=O)c1cnns1", "LiHisRS": 12.77, "Leishmania in macrophages": -16.02, "CoaBC": 1.241}
{"compound": "Fc1cccc(N2CCOC3(CCCN(c4cnccn4)C3)C2)c1", "stereo": "centres undefined", "LiHisRS": -10.53, "Leishmania in macrophages": -1.365, "CoaBC": 0.611}
{"compound": "C=C(C)CN(CC)S(=O)(=O)c1c(F)cc(NC(C)=O)cc1F", "LiHisRS": 5.263, "Leishmania in macrophages": -1.054, "CoaBC": -8.065}
{"compound": "COCCN1CCc2ncnc(NC(C)C)c2CC1", "LiHisRS": 2.703, "CoaBC": 1.98}
{"compound": "COc1cc(NCc2ccc(Cl)cc2)c(-c2nn[nH]n2)cc1OC", "LiHisRS": 30.86, "Leishmania in macrophages": -16.05, "CoaBC": 2.806}
{"compound": "O=C(NCCc1cccs1)[C@H]1CO[C@H]2CCN(CC3CC3)C[C@H]2C1", "LiHisRS": 6.364, "CoaBC": 0}
{"compound": "Cc1noc2ncc(C(=O)NCC3CCCO3)cc12", "stereo": "centres undefined", "LiHisRS": 9.174, "Leishmania in macrophages": -5.772, "CoaBC": 2.302}
{"compound": "Cn1cnc2c1CCN(Cc1csc(Cc3ccccc3)n1)C2", "LiHisRS": 37.72, "Leishmania in macrophages": 25.23, "CoaBC": 9.778}
{"compound": "CCc1ccc2c(c1)C(CCNC(=O)c1sccc1C)C(=O)N2", "stereo": "centres undefined", "LiHisRS": 10.53, "Leishmania in macrophages": 11.22, "CoaBC": 8.468}
{"compound": "CS(=O)(=O)c1ccc(OCCNCc2cccc(Cl)c2)cc1", "LiHisRS": 0, "Leishmania in macrophages": 8.226, "CoaBC": -0.1212}
{"compound": "COCC1CC2(CCN(Cc3nccs3)CC2)CN1Cc1ccccn1", "stereo": "centres undefined", "LiHisRS": 15.32, "CoaBC": 2.228}
{"compound": "CCC(C)NC(=O)c1nnn(-c2ccc(Br)cc2)n1", "stereo": "centres undefined", "LiHisRS": 1.37, "Leishmania in macrophages": -16.13, "CoaBC": 2.767}
{"compound": "COCCN1CCN(CCS(=O)(=O)C(F)(F)F)CC1C", "stereo": "centres undefined", "LiHisRS": 6.154, "Leishmania in macrophages": 22.31, "CoaBC": 2.698}
{"compound": "Cc1cc(C[C@@H]2CCC[C@H]2NCc2ccccc2F)on1", "LiHisRS": 27.54, "CoaBC": 2.184}
{"compound": "CCCNC(=O)c1nn(CC)cc1NC(=O)c1cn(C)nc1C", "LiHisRS": 30.11, "Leishmania in macrophages": 9.46, "CoaBC": 3.704}
{"compound": "Cc1noc(CNC(=O)C(C)(C)NC(=O)OC(C)(C)C)n1", "LiHisRS": -5.495, "Leishmania in macrophages": -1.654, "CoaBC": -2.123}
{"compound": "Cc1nccn1Cc1nnc(C2CCN(c3ccncc3F)CC2)n1C", "LiHisRS": 15.58, "Leishmania in macrophages": 4.988, "CoaBC": -0.5109}
{"compound": "Cc1cc(C)n(-c2cncc(N3CCN(C(=O)C(C)(C)C)CC3)n2)n1", "LiHisRS": 17.31, "Leishmania in macrophages": 2.146, "CoaBC": 0.207}
{"compound": "CN(C)CCOCc1cncc2c1CCN(C1CCOCC1)C2.O=C(O)C(F)(F)F.O=C(O)C(F)(F)F.O=C(O)C(F)(F)F", "Leishmania in macrophages": -11.59}
{"compound": "COc1ccc(NC2CCCN(Cc3cnc(N(C)C)s3)C2)cc1", "stereo": "centres undefined", "LiHisRS": 14.29, "Leishmania in macrophages": 7.294, "CoaBC": -5.66}
{"compound": "CNc1nc(C(=O)N2CCCn3nc(C(=O)N4CCCC4)cc3C2)cs1", "LiHisRS": 22.35, "Leishmania in macrophages": -3.742, "CoaBC": 7.767}
{"compound": "O=C(c1ccc(F)c(Cl)c1)N1C[C@@H]2CC[C@H](C1)N(Cc1ccccc1)C2", "LiHisRS": 40, "CoaBC": -44.52}
{"compound": "Cc1cnn(C2(C(=O)O)CCN(Cc3oc4ccccc4c3C)CC2)c1", "LiHisRS": 14.46, "Leishmania in macrophages": 27.14, "CoaBC": 5.825}
{"compound": "CC(C)C(=O)NCCc1nc(-c2ccncc2)n[nH]1", "LiHisRS": 4.196, "Leishmania in macrophages": -46.19, "CoaBC": -1.937}
{"compound": "CCn1cc(C(=O)N(C)[C@@H]2CC[C@@H](N3CCCC3)[C@@H]2O)c(C)n1", "LiHisRS": 14.49, "Leishmania in macrophages": 22.33, "CoaBC": 1.314}
{"compound": "O=C(NCCCN1CCCCC1)c1ccc(-n2ccc3ccccc32)s1", "LiHisRS": 39.81, "Leishmania in macrophages": 94.7, "CoaBC": 15.84}
{"compound": "CCn1ncc2c1CCCC2NCc1cc(C)ccc1OC", "stereo": "centres undefined", "LiHisRS": 6.78, "Leishmania in macrophages": 3.674, "CoaBC": 8.661}

4 of the entries, repeated:

{"compound": "O=C(NCCCN1CCCCC1)c1ccc(-n2ccc3ccccc32)s1", "LiHisRS": 39.81, "Leishmania in macrophages": 94.7, "CoaBC": 15.84}
{"compound": "C=C(C)CN(CC)S(=O)(=O)c1c(F)cc(NC(C)=O)cc1F", "LiHisRS": 5.263, "Leishmania in macrophages": -1.054, "CoaBC": -8.065}
{"compound": "CCn1ncc2c1CCCC2NCc1cc(C)ccc1OC", "stereo": "centres undefined", "LiHisRS": 6.78, "Leishmania in macrophages": 3.674, "CoaBC": 8.661}
{"compound": "Cc1noc2ncc(C(=O)NCC3CCCO3)cc12", "stereo": "centres undefined", "LiHisRS": 9.174, "Leishmania in macrophages": -5.772, "CoaBC": 2.302}